Measurements: patent US6911429B2, “Compositions and methods for treating cellular response to injury and other proliferating cell disorders regulated by hyaladherin and hyaluronans” (Transition Therapeutics Inc., priority 1999, dated 2005)
Part of at least one peptide drawing is inferred or uncertain, most often the ends. Where no end group is shown, it is not given here.

Assays:
excisional skin wound = experiment: rat punch biopsy excisional skin wound model; format: in vivo
[1] = weight gain in NZB/W F1 murine SLE model; format: in vivo, mouse
[2] = weight gain in NOD mice (control for SLE weight experiment); format: in vivo, mouse
NOD mice = experiment: NOD mouse model of type I diabetes mellitus; format: in vivo
Procedure: There are different colonies of NOD mice and there can be some variability between the colonies. The colony used develops the disease between 15-20 weeks of age and there is a 70-80% incidence of diabetes mellitus. The mice treated were divided into two groups of 10 animals; the first group being treated with P-16 peptide and the other group comprising of the control group, which was treated with saline. Once the NOD mice were 5 weeks old, the P-16 peptide was injected three times a week interperitoneally at a dose of 5 mg/kg for 23 weeks. The untreated mice and five mice from the treated group were sacrificed at 28 weeks of age. The remaining five mice from the treated group were taken off the peptide treatment at 28 weeks of age and were assessed for the disease after 16 weeks.
There are different colonies of NOD mice and there can be some variability between the colonies. The colony used develops the disease between 15-20 weeks of age and there is a 70-80% incidence of diabetes mellitus. The mice treated were divided into three groups of 10 animals; the first two groups being treated with S-3 and S-7 peptides, and the third group comprising of the control group, which was treated with saline. Once the NOD mice were 5 weeks old, the S-3 and S-7 peptides were injected three times a week intraperitoneally at a dose of 0.1 mg/kg for 23 weeks.

ND4 transgenic mice = experiment: ND4 transgenic mouse model of multiple sclerosis (demyelination clinical signs); format: in vivo; conditions: 10 mg/kg intraperitoneally three times per week, 3 to 6 months of age
Procedure: Briefly, transgenic mice (ND 4) bearing 70 copies of the transgene for DM20, a myelin proteolipid protein, were utilized for assignment of scores based upon clinical signs of demyelination. Clinical signs which were assessed included general shaking, seizures, head jerk, hind-limb and tail shiver, unsteadiness, wobbly gait and limp tail. Within each sign score between 0-4 was given: where zero score means absent and score 4 means constant and uncontrollable appearance of the sign of the disease. Experimental groups of mice were divided into 4; each group contained 5 animals: one normal, one ND 4 mouse untreated and three ND 4 mice treated with RHAMM mimetic—P-peptide. Animals were treated three times per week with 10 mg/kg of P-peptide intraperitonealy. Peptide was resuspended in 300 μl of PBS.
The severity of the clinical signs increase until maximum around 6 months with animals dying around 8 to 9 months of age. The clinical signs assessed include general shaking, seizures, head jerk, hind limb and tail shiver, wobbly gait and limp tail. The scale of zero (absence) to four (constant and uncontrollable movements) was used for each of the clinical signs. […]

[3] = test system: Human Foreskin Fibroblast (HFF); experiment: migration of injured human foreskin fibroblasts through the wound gap; format: cell-based; conditions: 15 h
[4] = 5 mg/kg i.p. three times a week

CSTMMSRSHKTRSHHV [P-peptide, CSTMMSRSHKTRSHHV]
ED-1 expression in wound site (RT-PCR, macrophage marker) (excisional skin wound; 1 ng/ml to 100 ug/ml, 7 days after injury): down regulation of ED-1 expression | collagen type I and III mRNA in wound site (RT-PCR) (excisional skin wound; 1 ng/ml-20 mg/ml applied once, 24 h post wounding): reduced levels of collagen type I and III | body weight after initiation of treatment ([1]; 5 mg/kg IP started at 16 and 24 weeks of age): decrease within the first week of the treatment | average increase of body weight ([1]; 5 mg/kg IP three times a week from 8 weeks of age): 2 g per month | total accumulation of weight ([1]; 5 mg/kg IP three times a week from 8 weeks of age, after 20 weeks): 6 g | weight gain [2]: did not effect the weight gain | increase in kidney weight (NOD mice; [4]): completely inhibited the increase in kidney weight | water consumption (NOD mice; [4]): did not change | urinary glucose and polydipsia after treatment stop (NOD mice; 16 weeks post-peptide treatment (stopped at 28 weeks of age)): negative results of urinary glucose and polydipsia | inhibition of disease symptoms (ND4 transgenic mice): 2 fold | effect on migration of HFF cells ([3]; 10 μg/ml): didn't have any effect | inhibition of migration of HFF cells compared to control cells ([3]; 100 μg/ml, P<0.01): approximately 4 fold
